Experimental data taken from patent US10085445B2, “Biocorrosion inhibitor for metal” (KURARAY CO., LTD., priority 2013, dated 2018).

Test system: activated sludge
Test: Biodegradability test (OECD 301C, JIS K 6950)
Settings: standard substance 30 mg (200 ppm)

SMILES: Nc1ccccc1 [aniline]
- degradability judgement: good degradability
- biodegradation ratio (during the test period): not less than 60%
